## Primary screen of a compound library

T. brucei: 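Whole-parasite assay of Trypanosoma brucei over 72 hours; the read-out is not stated. Compounds at 30 µM. Higher reads as stronger inhibition (inferred: compounds with an IC50 in retests scored well above the rest). Values scatter widely below zero; nearly all retest evidence comes from the higher of the two concentrations used. Of about 64,000 compounds tested this way, about 940 (1.5%) reached 50% or more in at least one test.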
Toxoplasma: 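Assay of Toxoplasma gondii numbers, read through their beta-galactosidase reporter with a colour substrate. Concentration: 10 µM. Higher reads as fewer parasites (inferred from which compounds were picked for retests). Size under these conditions: about 67,000 compounds, about 260 of them at 50% or above in at least one test.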
Leishmania in macrophages: 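Cell assay of Leishmania donovani living inside macrophages; the read-out is not stated. Tested at 30 µM. Direction is inferred from retests: higher values go with stronger inhibition. Of about 69,000 compounds tested this way, about 1,000 (1.5%) reached 50% or more in at least one test.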

Each number is a percent effect as filed.
The record does not define 0% and 100%; most values in the screen are far below 50% and negative numbers occur (in some assays of this library far below -100).
This is an unselected part of the compounds tested.
Two or more numbers in one place are separate tests of the same structure; such repeats can differ widely.

{"structure": "CCN(C(=O)CN1CCCC1c1ccc(F)cc1)c1ccccc1C", "stereo": "stereo not drawn", "T. brucei": 1.387, "Toxoplasma": -1.641, "Leishmania in macrophages": 12.93}
{"structure": "O=C(CCOc1cccc(Cl)c1)N1CCN(c2cnccn2)CC1", "Toxoplasma": 12.12, "Leishmania in macrophages": 1.166}
{"structure": "O=C(O)C(F)(F)F.[H][C@@]12CCN(Cc3c(C)noc3C)C[C@]1(C(=O)NCCOC)CCO2", "T. brucei": 14.24, "Toxoplasma": 8.737, "Leishmania in macrophages": 10.54}
{"structure": "Cn1c(=O)oc2ccc(NC(=O)N3CCOCC3)cc21", "T. brucei": -31.76, "Toxoplasma": -2.93, "Leishmania in macrophages": -23.86}
{"structure": "O=C(c1cnc(-c2ccccn2)s1)N1CCCC1Cn1cccn1", "stereo": "stereo not drawn", "T. brucei": 9.067, "Toxoplasma": -10.51, "Leishmania in macrophages": 12.49}
{"structure": "COc1cc(C(C)NCc2cscn2)ccc1SC(F)F", "stereo": "stereo not drawn", "T. brucei": -47.74, "Toxoplasma": -5.435, "Leishmania in macrophages": -30.33}
{"structure": "Cc1cc(C)n(C2CN(CC(=O)N(C)Cc3ccco3)C2)n1", "T. brucei": 22.65, "Toxoplasma": 0.1163, "Leishmania in macrophages": -0.4731}
{"structure": "CC(=O)N1CCC(NC2(Cc3cc(C(C)(C)O)on3)COC2)CC1", "T. brucei": -1.182, "Toxoplasma": 5.665, "Leishmania in macrophages": 10.94}
{"structure": "Cn1cnnc1C1CCCN(C(=O)c2ccc3c(c2)OCCO3)C1", "stereo": "stereo not drawn", "T. brucei": 21.3, "Toxoplasma": 4.864, "Leishmania in macrophages": 6.809}
{"structure": "N#Cc1ccc(SCCC(=O)O)cc1", "T. brucei": -48.33, "Toxoplasma": 1.96, "Leishmania in macrophages": 32.05}
{"structure": "CC(C)Cc1nc(COc2ccc(N(C)C(N)=O)cc2)no1", "T. brucei": -42.51, "Toxoplasma": 7.692, "Leishmania in macrophages": -4.145}
{"structure": "O=C(Nc1cc(C(F)(F)F)c[nH]c1=O)N1CCSCC1", "Toxoplasma": -5.131, "Leishmania in macrophages": 14.62}
{"structure": "Cc1ncccc1C(=O)NC1CC(=O)N(CC(F)(F)F)C1", "stereo": "stereo not drawn", "T. brucei": -51.29, "Toxoplasma": 2.37, "Leishmania in macrophages": 0.9985}
{"structure": "[H][C@@]12CS(=O)(=O)C[C@]1([H])N(CCCc1ccccc1)CCN2C(=O)N(C)C", "T. brucei": -39.35, "Toxoplasma": -3.823, "Leishmania in macrophages": 14.25}
{"structure": "O=C(c1cccc(S(=O)(=O)NCCCc2ncc[nH]2)c1)N1CCOCC1", "T. brucei": -73.84, "Toxoplasma": -1.423, "Leishmania in macrophages": 11.63}
{"structure": "COC(=O)c1cc(C(=O)N2CCN(C)CC2)n(-c2ccccc2)n1", "T. brucei": 5.512, "Toxoplasma": 0.4398, "Leishmania in macrophages": 11.27}
{"structure": "O=C(O)C(F)(F)F.[H][C@@]12C[C@H](C(=O)NC3CC3)CN(Cc3cccc4ccccc34)[C@]1([H])CCO2", "T. brucei": -94.82, "Toxoplasma": -0.5643, "Leishmania in macrophages": "13.31 & -0.7344"}
{"structure": "CCCc1noc(CN2CCC(N(C)Cc3nnc(C4CC4)o3)C2)n1", "stereo": "stereo not drawn", "Toxoplasma": 6.711, "Leishmania in macrophages": 12.54}
{"structure": "Nc1nc2nc(C3CCCN(C(=O)c4cscn4)C3)ccc2s1", "stereo": "stereo not drawn", "T. brucei": -9.022, "Toxoplasma": -19.14, "Leishmania in macrophages": 15.53}
{"structure": "CC(C)CCCNC(=O)Nc1ccc(F)c(C(N)=O)c1", "T. brucei": 6.977, "Toxoplasma": -2.113, "Leishmania in macrophages": 7.55}
{"structure": "O=C(Cn1cc(C2CC2)nn1)N(Cc1ccco1)Cc1cccs1", "T. brucei": 6.681, "Toxoplasma": 1.477, "Leishmania in macrophages": -13.61}
{"structure": "Cc1cc(C)n(CC(C)CNC(=O)N(C)Cc2cc(C)on2)n1", "stereo": "stereo not drawn", "T. brucei": -9.393, "Toxoplasma": 6.055, "Leishmania in macrophages": 29.75}
{"structure": "O=C(O)C(F)(F)F.[H][C@]12CC(CN3CCCC3)N(C(C)=O)[C@@]1([H])CCN(C(=O)c1ccoc1)C2", "stereo": "stereo partly drawn", "T. brucei": -10.91, "Toxoplasma": 6.768, "Leishmania in macrophages": 10.9}
{"structure": "Cc1c(C(=O)N2CCCC(O)(CN(C)C)CC2)c2cc(O)ccc2n1C", "stereo": "stereo not drawn", "T. brucei": -202.6, "Toxoplasma": -2.091, "Leishmania in macrophages": -25.83}
{"structure": "CCc1nc(CN(C(C)=O)C2CCN(CC3CCOCC3)C2)no1", "stereo": "stereo not drawn", "Toxoplasma": -0.7952, "Leishmania in macrophages": 20.88}
{"structure": "CC(C)c1csc(NC(=O)NC2CCCN(c3cnn(C)c3)C2)n1", "stereo": "stereo not drawn", "T. brucei": -3.011, "Toxoplasma": -12.61, "Leishmania in macrophages": -18.21}
{"structure": "[H][C@]12CC[C@]([H])(CN(S(C)(=O)=O)C1)N(C(=O)Cn1ccc3ccccc31)C2", "T. brucei": 22.01, "Toxoplasma": 3.937, "Leishmania in macrophages": 13.76}
{"structure": "Cn1cnnc1C1CCCN(C(=O)NCc2cc[nH]n2)C1", "stereo": "stereo not drawn", "T. brucei": -19.13, "Toxoplasma": 20.53, "Leishmania in macrophages": 2.426}
{"structure": "NC(=O)CN1CCC(c2cccc(Oc3ccccc3)n2)CC1", "Toxoplasma": 7.752, "Leishmania in macrophages": -40.62}
{"structure": "CC(C)CCOCCNC(=O)Nc1ccc(F)c(C(N)=O)c1", "Toxoplasma": -4.641, "Leishmania in macrophages": 10.74}

Once more, the final 3:

* Cn1cnnc1C1CCCN(C(=O)NCc2cc[nH]n2)C1 (stereo not drawn) : T. brucei: -19.13%; Toxoplasma: 20.53%; Leishmania in macrophages: 2.426%
* NC(=O)CN1CCC(c2cccc(Oc3ccccc3)n2)CC1 : Toxoplasma: 7.752%; Leishmania in macrophages: -40.62%
* CC(C)CCOCCNC(=O)Nc1ccc(F)c(C(N)=O)c1 : Toxoplasma: -4.641%; Leishmania in macrophages: 10.74%

The values are deposited in ChEMBL (CHEMBL3988442, “University of Dundee, Small-Polar-MMV Screening Library” (2021)).